Test results taken from PubChem BioAssay AID504408 (Broad Institute, 2011).
Several values for one entry are separate records, joined by “and”; a condition that tells them apart may be missing. Equal values may be shown once. Screen size: about 300,000 compounds; about 5,200 (1.7%) were called active. This list was built around the results that the source calls inconclusive (neither active nor inactive); the mix of calls is not that of the screen.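 Rule for the calls: active = mean replicate activation of at least 50% with a set share of replicates each reaching 50%; inconclusive = only one of those two conditions met; inactive = mean below 50% and too few replicates reaching it.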

Test: HSF-1 activators, primary screen, NIH3T3-HGL cells, MG132 stress, luminescence, single point (AID 504408);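 note: 0% = median of the neutral control wells and 100% = twice that signal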
Conditions: NIH3T3-HGL HSF-1 luciferase reporter, MG132, 8 h; at 9 µM; stronger effect = higher value; 100% = twice DMSO control signal

Q: For `C=CCn1nc([N+](=O)[O-])nc1Sc1cccc2cccnc12`, which activation is on record?
A: inconclusive: 50.9%

Q: For `COCCNc1c([N+](=O)[O-])c(=O)n(-c2ccccc2)c2ccccc12`, which activation is on record?
A: active: 68.9%

Q: With `Cc1ccc2nc3sc(C(=O)NCc4ccco4)c(N)c3cc2c1` as the molecule, how does the activation read?
A: active: 84.6%

Q: Which activation does the source give for `Cn1c(Cn2nnc3ccccc32)nnc1SCC(=O)c1ccccc1F` here?
A: inconclusive: 50.3%

Q: Which activation does the source give for `Cc1occc1C(=O)NNS(=O)(=O)c1ccc([N+](=O)[O-])cc1` here?
A: inconclusive: 57.9%

Q: With `Cc1cc(C(=O)OCC(=O)N2CCc3ccccc32)c(C)o1` as the molecule, how does the activation read?
A: inconclusive: 51.1%

Q: With `COc1ccc(/C=C2/SC(=O)N(CCNC(=O)C3COc4ccccc4O3)C2=O)cc1` (stereo not drawn) as the molecule, how does the activation read?
A: inconclusive: 52.3%

Q: Which activation does the source give for `Cc1n[nH]c(C)c1S(=O)(=O)N(CC(=O)N1CCc2ccccc21)c1ccc(C(C)C)cc1` here?
A: active: 75%

Q: With `Fc1cccc2sc(N3CCCCC3)nc12` as the molecule, how does the activation read?
A: inconclusive: 51.5%

Q: With `COc1ccccc1-c1ccc(SCc2ccccc2)nn1` as the molecule, how does the activation read?
A: inconclusive: 53.4%

Q: With `O=C(Cc1ccc(Cl)cc1)N1CCc2ccccc2C1` as the molecule, how does the activation read?
A: active: 59%

Q: For `COc1ccc(C(=O)/C=C/c2ccccc2OC)c(OC(=O)c2ccc([N+](=O)[O-])cc2)c1`, which activation is on record?
A: inconclusive: 53.4%

Q: With `CC(C)CC(NC(=O)c1ccc(Cl)cc1)C(=O)O` (stereo not drawn) as the molecule, how does the activation read?
A: inactive: -4.65%

Q: Which activation does the source give for `Clc1cccc(Cl)c1/C=C/c1nc2ccccc2[nH]1` here?
A: inactive: 25.7%

Q: Which activation does the source give for `COc1ccc(/C=C2\CCC/C(=C\C=N\N(C)C)C2=O)cc1` here?
A: inconclusive: 50.6%

Q: Which activation does the source give for `O=C(NCCCN1CCC(Cc2ccccc2)CC1)C1CC(=O)N(C2CCCC2)C1` (stereo not drawn) here?
A: inactive: -70.5%

Q: For `CCOc1ccc(NC(=O)c2ccc(NC(=S)NC3CCCCC3)cc2)cc1`, which activation is on record?
A: inactive: 13.8%

Q: Which activation does the source give for `NNC(=S)Nc1cccc(Cl)c1` here?
A: inconclusive: 55.1%

Q: For `CCOC(=O)CC1C(=O)NCCN1S(=O)(=O)c1cc(Cl)c(Cl)cc1Cl` (stereo not drawn), which activation is on record?
A: inconclusive: 54.9%

Q: Which activation does the source give for `CCCCNc1c2c3c(cccc3n(C)c1=O)C(=O)c1ccccc1-2` here?
A: inconclusive: 54.4%

Q: Which activation does the source give for `Cc1cc(C)c2[nH]c(=O)c(CN(Cc3ccc4c(c3)OCO4)Cc3nnnn3C3CCCC3)cc2c1` here?
A: inconclusive: 53.3%

Q: With `CCc1cc(C(c2ccc(OC)c(OC)c2)N2CCOCC2)c(NC(=O)c2ccccc2)s1` (stereo not drawn) as the molecule, how does the activation read?
A: inconclusive: 59.6%

Q: With `Cc1ccc(S(=O)(=O)CCc2nnc(NC(=O)c3cnccn3)s2)cc1` as the molecule, how does the activation read?
A: inactive: 2.56%

Q: Which activation does the source give for `Cc1ccccc1NC(=O)CSc1nn2c(=O)c(C)nnc2s1` here?
A: inactive: -3.86%

Q: Which activation does the source give for `O=C(Nc1ccc2nc(-c3ccccc3)oc2c1)c1ccco1` here?
A: inconclusive: 50.6%

Q: Which activation does the source give for `Nc1cc(OC(=O)c2ccccc2Br)nn1S(=O)(=O)c1ccccc1` here?
A: inconclusive: 50.6%

Q: With `COc1ccc(C(=O)c2coc3ccc(O)c(CN(C)C)c23)cc1` as the molecule, how does the activation read?
A: inconclusive: 56.9%

Q: With `CC(=O)Nc1ccc2nc(NC(=O)c3ccco3)sc2c1` as the molecule, how does the activation read?
A: inconclusive: 50%

Q: Which activation does the source give for `COc1ccc(CN2CC(C(=O)NCCCN3CCOCC3)CC2=O)cc1` (stereo not drawn) here?
A: inconclusive: 52.1%

Q: Which activation does the source give for `Cc1ccc(Cn2ccnc2C(=O)Nc2ccccc2)cc1` here?
A: inconclusive: 56.1%

Q: With `CC(CCc1ccccc1)NC(=O)CN1CCc2ccccc2C1` (stereo not drawn) as the molecule, how does the activation read?
A: active: 93.6%

Q: With `Cc1cnc(C(=O)N2CCCC(C(=O)c3ccc(Cl)cc3C)C2)cn1` (stereo not drawn) as the molecule, how does the activation read?
A: inactive: 6.73%

Q: For `COc1cccc(CNC(=O)CN2C(=O)CC(c3ccccc3)=Nc3ccccc32)c1`, which activation is on record?
A: inactive: -4.17%

Q: Which activation does the source give for `Cc1ccc(-c2c(C)sc(=NC(=O)c3ccco3)n2C)cc1` here?
A: inconclusive: 53.9%

Q: Which activation does the source give for `Cc1ccc(NC(=S)Nc2cc(C)on2)cc1` here?
A: inconclusive: 50.3%

Q: With `Cc1cccc(NC(=O)c2cnn3ccccc23)c1C` as the molecule, how does the activation read?
A: inactive: 21.2%

Q: For `Cc1ccc(Cn2nnc3c(=O)[nH]c(C4CCN(S(=O)(=O)/C=C/c5ccccc5)CC4)nc32)cc1`, which activation is on record?
A: inconclusive: 55.2%

Q: With `COc1ccc(C)cc1Cn1c(S(C)(=O)=O)nc2ccccc21` as the molecule, how does the activation read?
A: inconclusive: 51.4%

Q: For `C/C(N)=C(/C#N)C(=O)CSc1nnc(Nc2ccccc2)s1`, which activation is on record?
A: active: 55.3%

Q: With `Cc1cc(O)c(-c2cc(C(=O)Nc3cccnc3)[nH]n2)cc1C` as the molecule, how does the activation read?
A: active: 63.6%

Q: With `O=C1C(=Nc2cccc(Cl)c2)CC(c2ccc(Cl)cc2)N1c1cccc(Cl)c1` (stereo not drawn) as the molecule, how does the activation read?
A: inactive: 9.08%

Q: For `O=C(/C=C/c1ccco1)Nc1cccnc1Cl`, which activation is on record?
A: inconclusive: 53.5%

Q: For `CCCc1cc(C(=O)Nc2cc(OC)ccc2OC)cs1`, which activation is on record?
A: inactive: 19.3%

Q: With `CCc1c(C)[nH]n(-c2nc(-c3cccc([N+](=O)[O-])c3)cs2)c1=O` as the molecule, how does the activation read?
A: inactive: 15.3%

Q: For `Cc1cccc(Oc2nc(-c3ccccn3)nc3ccccc23)c1`, which activation is on record?
A: inconclusive: 60.3%

Q: Which activation does the source give for `CN(C)S(=O)(=O)c1cccc(NC(=O)COC(=O)/C=C/c2ccc([N+](=O)[O-])cc2)c1` here?
A: active: 63.3%

Q: For `NS(=O)(=O)c1ccc(N/N=C/C=C/c2ccccc2[N+](=O)[O-])cc1`, which activation is on record?
A: inconclusive: 50.9%

Q: With `N/C(=N\N=C\c1ccc2c(c1)OCO2)c1nonc1N` as the molecule, how does the activation read?
A: inconclusive: 56.3%

Q: For `Cc1cccc(N=N/C(=C\O)C(=O)c2ccc(Br)cc2)c1`, which activation is on record?
A: inconclusive: 60.6%

Q: Which activation does the source give for `COc1cc2c(C#N)c(N3CCCC3)nc(N)c2c(N)n1` here?
A: inactive: 1.98% and inactive: -8.24%

Q: Which activation does the source give for `N/C(=N\OC(=O)CCCN1C(=O)c2ccccc2C1=O)c1ccccn1` here?
A: inconclusive: 51%

Q: With `CCCCCCCSc1nsc(N)n1` as the molecule, how does the activation read?
A: inconclusive: 53.5%

Q: For `O=Cc1cc(Cl)ccc1OCCN1CCC(Cc2ccccc2)CC1`, which activation is on record?
A: inactive: 14.1%

Q: For `O=C(COC(=O)/C=C/c1nc2ccccc2s1)Nc1ccccc1Oc1ccccc1`, which activation is on record?
A: active: 54.4%

Q: For `N#C/C(=C\c1ccc(N2CCOCC2)o1)c1nc2ccccc2[nH]1`, which activation is on record?
A: inactive: 41.3%

Q: Which activation does the source give for `CSc1ccc(/C=C(\C#N)C(=O)Nc2cccc(C)c2)cc1` here?
A: inconclusive: 51.8%

Q: For `CSc1nc2ccc(NC(=O)c3ccc(F)c(F)c3)cc2s1`, which activation is on record?
A: inconclusive: 50.6%

Q: Which activation does the source give for `CC1(C)Cc2c(C#N)c(NC3CCCCC3)nc(-c3ccco3)c2CO1` here?
A: inconclusive: 59.2%

Q: For `CC(C)CCN=CC1=C(O)CC(c2ccccc2)CC1=O` (stereo not drawn), which activation is on record?
A: active: 66.8%

Q: With `COc1cc(C(=O)Oc2cccc(Nc3ncnc4ccccc34)c2)cc(OC)c1OC` as the molecule, how does the activation read?
A: inactive: -5.77%

Q: Which activation does the source give for `O=C(CCN1C(=O)/C(=C\c2cccc(Br)c2)SC1=S)NCCCN1CCOCC1` here?
A: inactive: 0.635%

Q: With `CCc1nnc(SCC(=O)N2CCCC(N3CCN(c4ccccc4C)CC3)C2)o1` (stereo not drawn) as the molecule, how does the activation read?
A: inactive: 12.6%

Q: Which activation does the source give for `N#Cc1c(-c2ccccc2)c(-c2ccccc2)n(Cc2ccco2)c1NC(=O)c1cccs1` here?
A: inconclusive: 51.6%

Q: Which activation does the source give for `COc1ccc2oc(=Nc3cc(F)ccc3F)c(C(N)=O)cc2c1` here?
A: active: 70.5%

Q: With `CN(C)/C=C/C(=O)c1ccc(Cl)c([N+](=O)[O-])c1` as the molecule, how does the activation read?
A: inconclusive: 50.4%

Q: For `Nc1nc(Nc2cccc(F)c2)nc2ccccc12`, which activation is on record?
A: active: 55.5%

Q: With `COc1ccc(NC2CC(=O)N(CCc3ccccc3)C2=O)cc1` (stereo not drawn) as the molecule, how does the activation read?
A: inconclusive: 52.2%

Q: With `Cc1cc2oc(=O)cc(CSc3nc(N)cc(N)n3)c2cc1C` as the molecule, how does the activation read?
A: inconclusive: 50.4%

Q: Which activation does the source give for `O=c1[nH]c(N2CCN(c3ccccc3)CC2)nc2c1CCC2` here?
A: inconclusive: 51.8%

Q: For `Cc1cc(NC(=O)CSc2nc3ccccc3cc2C#N)no1`, which activation is on record?
A: inconclusive: 50.4%

Q: For `O=C(NC(=S)N1CCN(C/C=C/c2ccccc2)CC1)c1ccc(Cl)nc1`, which activation is on record?
A: active: 68.8%

Q: With `CN(C(=O)CSc1nc2cc(Cl)ccc2c(=O)n1Cc1ccco1)C1CCS(=O)(=O)C1` (stereo not drawn) as the molecule, how does the activation read?
A: inconclusive: 70.3%

Q: For `COc1cc(OC)c(NS(=O)(=O)c2ccc3c(c2)NC(=O)CO3)cc1Cl`, which activation is on record?
A: inactive: -9.25%

Q: For `CCCCc1ccc(N=N/C(C(=O)Nc2ccccc2OC)=C(/C)O)cc1`, which activation is on record?
A: inactive: 1.47%

Q: With `O=C(Nc1ccn(Cc2ccccc2)n1)c1n[nH]c([N+](=O)[O-])c1Cl` as the molecule, how does the activation read?
A: inconclusive: 53.3%

Q: For `COc1cc(C(=O)NC2=NCCS2)ccc1OCc1c(C)noc1C`, which activation is on record?
A: inconclusive: 50.1%

Q: For `COC(=O)c1ccc(NC(=O)CSC2=NC(=O)C(c3ccccc3)C(=O)N2)cc1` (stereo not drawn), which activation is on record?
A: inactive: -5.21%

Q: Which activation does the source give for `O=C(/C=C/c1cccc(O)c1)c1ccc(N2CCOCC2)cc1` here?
A: active: 74%

Q: For `COc1ccc(C/C(O)=C(\C#N)c2nc3ccccc3[nH]2)cc1OC`, which activation is on record?
A: active: 59.2%

Q: For `COC(=O)c1ccc(OS(=O)(=O)N(C)C)cc1`, which activation is on record?
A: inactive: 31.5%

Q: With `CC(=O)NC12CC3CC(C1)CC(C(=O)Nc1nc4ccc(F)cc4s1)(C3)C2` as the molecule, how does the activation read?
A: inactive: -4.78%

Q: With `Cc1ccc(O)c(-c2cc(-c3cccc(F)c3)n[nH]2)c1` as the molecule, how does the activation read?
A: inconclusive: 69.3%

Q: Which activation does the source give for `Cc1ccccc1Cn1cc(C)c(=O)[nH]c1=O` here?
A: inactive: -4.1%

Q: For `COC(=O)c1sc(-c2ccc(Cl)cc2)cc1NC(=O)/C=C/C(=O)O`, which activation is on record?
A: active: 66.2%

Q: Which activation does the source give for `O=C(Nc1ncc(Cc2cccc([N+](=O)[O-])c2)s1)c1ccco1` here?
A: inactive: 41.7%

Q: With `CCOC(=O)c1ccc(NC(=O)C2C3CCCCC32)cc1` (stereo not drawn) as the molecule, how does the activation read?
A: inconclusive: 50%

Q: Which activation does the source give for `O=C(Nc1nc(-c2cc3ccccc3oc2=O)cs1)c1ccc(Br)o1` here?
A: active: 65.7%

Q: Which activation does the source give for `Cc1ccccc1C(=O)NCCCNC(=O)c1cnccn1` here?
A: inactive: 5.1%

Q: Which activation does the source give for `CC(=O)c1cc(C#N)c(SCC(=O)Nc2nccs2)nc1C` here?
A: inconclusive: 52.2%

Q: Which activation does the source give for `Cc1ccc(S(=O)(=O)N2CCC(C(=O)NCC3CCCCC3)CC2)cc1` here?
A: inconclusive: 50.1%

Q: For `N/C(=N\OC(=O)/C=C/c1ccccc1)c1cccnc1`, which activation is on record?
A: inconclusive: 52.5%

Q: With `O=C(Nc1cccnc1)c1cc(-c2ccc(Cl)c(Cl)c2)on1` as the molecule, how does the activation read?
A: inconclusive: 52%

Q: Which activation does the source give for `O=C1C2=C(NC(=S)NC2c2ccc(Cl)cc2)NC(c2ccc(Cl)cc2)N1c1ccc(Cl)cc1` (stereo not drawn) here?
A: inconclusive: 50.4%
